## Assay results

The results are deposited in PubChem (AID912; NCATS, 2007).

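A cell-based FRET test of anthrax lethal toxin entry, tracked through the 460 nm emission signal; the cell line is not named here. Each compound was tested as a concentration series from about 0.0005 to 40 µM. The number is the fitted AC50 of the 460 nm signal alone; lower values mean a more potent effect. A falling signal goes with compounds filed as inhibitors or cytotoxic, a rising one with activators or fluorescent compounds (inferred from the filed classes).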

Values are in µM. Common to all entries: measured here: 460 nm channel. This is a side read-out of the assay, for part of the compounds, not drawn at random. A potency from a partial, single-point or poor curve is only a rough figure. The first word of each remark tells which way the curve ran; it can be opposite to the aim of the assay.

SMILES,AC50 (µM),curve as filed
CCCCCCNC(=O)c1c(N)n(/N=C/c2ccco2)c2nc3ccccc3nc12,10,"rising, partial curve"
COc1ccccc1CN1CC2(CCN(C(=O)c3ccncc3)CC2)C1,12.59,"rising, partial curve"
Cc1cc(N2CCC(C(=O)N3CCN(c4cccc(C)c4C)CC3)CC2)n2ncnc2n1,2.512,"rising, full curve, poor fit"
COCCn1cnc2cc(C)c(C)cc21,0.01259,"falling, full curve"
O=C1CC(N2CCC(O)(c3ccc(Cl)cc3)CC2)C(=O)N1 (stereo not shown),0.631,"falling, full curve"
CCOc1ccc(OCC)c(NC(=O)C2CCCN2S(=O)(=O)c2cccc3cccnc23)c1 (stereo not shown),3.981,"falling, partial curve"
O=C(Cn1c(=O)oc2cc(S(=O)(=O)N3CCc4ccccc43)ccc21)N1CCCCC1,19.95,"falling, single point"
CC(C)(C)C(=O)N=C1SC2CS(=O)(=O)CC2N1c1ccc2c(c1)OCO2 (stereo not shown),0.003981,"falling, full curve, poor fit"
CC(=O)c1nnn(-c2nc(N)nc(N(c3ccccc3)c3ccccc3)n2)c1C,25.12,"rising, single point"
CCOC(=O)c1cc2cc(-c3c(C(=O)OCC)oc4cc(O)cc(O)c4c3=O)ccc2o1,15.85,"falling, single point"
COC(=O)C1=C(C)N(Cc2ccccc2)C2=C(C(=O)c3ccccc3)C(c3ccccc3)[C@@](O)(C(=O)OC)C(=O)N2C1c1ccccc1 (stereo partly shown),3.162,"rising, partial curve"
C[C@@H]1O[C@@H](O[C@H]2C[C@@H](O)[C@]3(CO)[C@@H]4[C@@H](O)C[C@]5(C)[C@H]([C@@H]6COC(=O)C6)CC[C@@]5(O)[C@H]4CC[C@@]3(O)C2)[C@H](O)[C@H](O)[C@@H]1O,2.512,"falling, full curve, poor fit"
COC(=O)c1cc2oc(C)cc2n1CC(=O)Nc1ccc(C)c(C)c1,10,"falling, partial curve"
O=C(CN1c2cccc3cccc(c23)S1(=O)=O)N1CCOCC1,6.31,"falling, partial curve"
C[C@@H](C(=O)Nc1ccc2ccccc2c1)[C@@H]1C[C@@]1(C)[C@@H](NC(=O)c1cccnc1)c1ccccc1,12.59,"rising, single point"
Cc1ccc2oc(=O)c3cnn(CC(=O)Nc4ccccc4N4CCN(C)CC4)c3c2c1,0.1259,"falling, full curve"
CCN(CC)c1ccc2cc(-c3nc4ccccc4n3C)c(=O)oc2c1,2.512,"rising, full curve"
CCNc1ncc2nc(CCc3ccccc3)c(=O)n(Cc3ccc(F)cc3)c2n1,10,"rising, partial curve"
COc1cc2c(c(OC)c1OC)-c1ccc(OC)c(=O)cc1[C@@H](NC(C)=O)CC2,0.02512,"falling, full curve"
C[C@](N)(Cc1ccc(O)c(O)c1)C(=O)O,31.62,"falling, single point"
c1cc(CN2CCCC3(CCNCC3)C2)ccn1,7.943,"falling, partial curve"
Oc1ccc(CN2CCN(Cc3ccccc3)CC2)c2cccnc12,12.59,"falling, partial curve"
CNC(=O)c1c(NC(=O)c2nc3ccccc3s2)sc2c1CCC2,3.981,"falling, full curve"
CCCn1c(C)nc2c(N(CCN(CC)CC)CCN(CC)CC)nc(C)nc21,6.31,"falling, partial curve"
c1ccc(-n2ncc3c2ncn2nc(-c4ccco4)nc32)cc1,0.7943,"rising, partial curve"
COc1cc(NC(=O)c2cc(-c3cccc(O)c3)on2)cc(OC)c1OC,12.59,"falling, partial curve"
C=N[C@H](C(=O)N[C@@H]1C(=O)N2[C@@H]1SC(C)(C)[C@@H]2C(=O)O)c1ccccc1,2.512,"rising, single point"
Cn1cc(-c2nc3cnc(N4CCNCC4)nc3n(CCc3ccccc3)c2=O)c2ccccc21,0.2512,"rising, full curve"
Cc1ccc(-c2cc3nc(C)cc(NCc4ccco4)n3n2)cc1,10,"rising, partial curve"
CC(C)=NO[C@@H](C)c1cn([C@H](CO)Cc2ccccc2)nn1,1,"rising, single point"
OCCN1CCN(CCCN2c3ccccc3Sc3ccc(C(F)(F)F)cc32)CC1,31.62,"falling, partial curve, poor fit"
CC(C)NC(=O)N1CCC2(CC1)CCN(S(=O)(=O)c1ccccc1)CC2,31.62,"rising, single point"
Cc1ccc(-c2oc3ccccc3c(=O)c2O)cc1,3.162,"falling, partial curve"
Cc1noc(C)c1S(=O)(=O)N(CC(=O)NCc1ccc2c(c1)OCO2)c1ccc(C(C)C)cc1,10,"falling, partial curve"
C=CCn1c(O)c(C(CC)=Nc2cc(OC)ccc2OC)c(=O)[nH]c1=O,3.981,"rising, partial curve"
CCOC(=O)C1CCCN(C(=O)c2ccc(CNc3c(N4CCC(C)CC4)c(=O)c3=O)cc2)C1 (stereo not shown),6.31,"rising, partial curve"
CCOC(=O)c1cc2sccc2n1Cc1ccc(C#N)cc1,31.62,"falling, single point"
N#CCCn1c(=O)c(-c2cc(F)cc(F)c2)nc2cnc(N3CCOCC3)nc21,12.59,"rising, partial curve"
COC(=O)c1ccc(OC)c(CSc2nnc(COc3cccc(C)c3)o2)c1,0.1,"falling, full curve"
COc1ccccc1N1CCN(CC(=O)Nc2ccc(C)c(F)c2)CC1,10,"falling, single point"
Cc1ccsc1C1C2=C(CC(C)(C)CC2=O)Nc2ncnn21 (stereo not shown),3.162,"rising, single point"
CC(C)CNS(=O)(=O)c1ccc(CCC(=O)N2CCN(Cc3ccccc3)CC2)cc1,7.943,"rising, partial curve"
CC1(C)C(=O)NC2=C1C(=O)C(=O)c1ccccc12,3.981,"falling, full curve"
CC(=O)OC1CSc2nc3ccccc3n2C1 (stereo not shown),31.62,"rising, single point"
N#Cc1cccc(-c2ccc3ncnc(NCc4cccs4)c3c2)c1,10,"falling, partial curve"
CCOC(=O)N1CCC(NC(=O)Cn2nc(-c3ccccc3)ccc2=O)CC1,0.7943,"falling, full curve, poor fit"
CCOC(=O)c1sc(=S)n(-c2ccc3c(c2)OCO3)c1N,12.59,"rising, single point"
O=S(=O)(Cc1ccccc1)N1CCC(c2nc(-c3cccs3)no2)CC1,3.162,"falling, single point"
CNc1nc(Nc2ccc(C(C)=O)cc2)nc(OC(C(F)(F)F)C(F)(F)F)n1,12.59,"falling, single point"
O=C(NCCCN1CCCC1=O)c1ccccc1NS(=O)(=O)c1ccc(F)cc1,19.95,"rising, partial curve, poor fit"
CSc1nc(-c2ccccc2)nc(N2CCCC2)c1C(C)=O,10,"falling, partial curve, poor fit"
Cn1c(NC(=O)c2ccco2)c(-c2ccccc2Cl)c(=O)c2ccccc21,0.1,"falling, full curve"
Nc1nc(CSc2nc3ccccc3s2)nc(N2CCCCC2)n1,3.162,"falling, partial curve"

Some entries from above, unchanged:

SMILES,AC50 (µM),curve as filed
CCOC(=O)c1cc2cc(-c3c(C(=O)OCC)oc4cc(O)cc(O)c4c3=O)ccc2o1,15.85,"falling, single point"
COC(=O)C1=C(C)N(Cc2ccccc2)C2=C(C(=O)c3ccccc3)C(c3ccccc3)[C@@](O)(C(=O)OC)C(=O)N2C1c1ccccc1 (stereo partly shown),3.162,"rising, partial curve"
CCNc1ncc2nc(CCc3ccccc3)c(=O)n(Cc3ccc(F)cc3)c2n1,10,"rising, partial curve"
COc1cc(NC(=O)c2cc(-c3cccc(O)c3)on2)cc(OC)c1OC,12.59,"falling, partial curve"